# Assay results published in PubChem BioAssay AID662 (National Center for Advancing Translational Sciences (NCATS), 2007).
# The other results are listed elsewhere or left out. These are further read-outs of the screen, such as a control signal, another cell line or another target. No call is given for them. Compounds called inactive in the main read-out are mostly missing here. The note in brackets gives the kind of curve behind each potency; many fits are weak.
# Assay: Cell signaling CRE-BLA (Fsk stim)
# Conditions: CHO CRE-bla reporter (cAMP response element driving beta-lactamase), forskolin EC10, beta-lactamase ratio; measured here: 460 nm blue channel
# In short: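 Forskolin analogue NKH 477 at EC10 stimulated CRE-driven beta-lactamase in CHO cells alongside compound dilution series. Beta-lactamase was measured with CCF4, excitation 405 nm, emission ratio 460/530 nm.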
row,Structure (SMILES),AC50
1,CCCn1c(-c2ccc(F)cc2)nc2c(NCCN3CCSCC3)nc(C)nc21,"3.16 µM [rising, full curve]"
2,CC(C)NC(=O)N1CCC2(CC1)CCN(C(=O)c1ccco1)CC2,"5.01 µM [falling, single point]"
3,COC(=O)C1=C(C)NC(C)=C(C(=O)OC)C1c1ccc(N(C)C)cc1,"0.398 µM [falling, partial curve]"
4,CCSc1nc2c(cnn2-c2ccc(C)cc2)c(=O)[nH]1,"6.31 µM [rising, partial curve]"
5,COC(=O)c1c[nH]n2c(=O)c(Cc3ccc(F)cc3Cl)c(C)nc12,"25.1 µM [rising, single point]"
6,OC(CN1CCOCC1)CN1CCOCC1,"10 µM [falling, partial curve]"
7,CCOc1ccc(N(CC(=O)Nc2ccc3c(c2)OCCO3)S(=O)(=O)c2c(C)noc2C)cc1,"10 µM [falling, single point]"
8,Cc1ccc(C)c2[nH]c(=O)c(CCNC(=O)c3ccc(Br)o3)cc12,"5.01 µM [rising, partial curve]"
9,CC(C)c1nc2oc3c(NCC4CCCO4)ncnc3c2c2c1COC(C)(C)C2 (configuration not stated),"1 µM [rising, full curve]"
10,CCOC(=O)c1ccccc1NC(=O)CSc1nc2ccccc2n1CC(=O)N1CCCC1,"2 µM [rising, partial curve]"
11,COc1ccc(-c2nc(C#N)c(NCC3CCCO3)o2)cc1OC (configuration not stated),"10 µM [rising, partial curve]"
12,CCCn1c(SCC(=O)N2CCCC2)nc2c1c(=O)n(C)c(=O)n2C,"10 µM [rising, partial curve]"
13,CCCn1c(=O)c(C(=O)NCc2cccnc2)c(O)c2ccccc21,"3.16 µM [rising, full curve]"
14,O=C(Nc1ccc(-c2cn3ccsc3n2)cc1)c1ccc(F)c(S(=O)(=O)N2CCOCC2)c1,"3.16 µM [rising, full curve]"
15,Clc1ccccc1Cn1nnc2c(NCC3CC3)ncnc21,"10 µM [rising, partial curve]"
16,CCn1c(CCC(=O)Nc2cc(F)ccc2C)nc2cc(S(=O)(=O)N(C)C)ccc21,"12.6 µM [rising, single point]"
17,COc1ccccc1CNc1ccnc(-c2c(C)noc2C)n1,"12.6 µM [rising, single point]"
18,CCOc1ccc2[nH]c(O)c(NC(C)=O)c2c1,"3.16 µM [falling, partial curve]"
19,Cc1nc2ccc(NC(=O)N3CCSCC3)cc2nc1C,"10 µM [rising, partial curve]"
20,Cc1nc(C)c(C(=O)C2=C(O)C(=O)N(CCN3CCOCC3)C2c2cccs2)s1 (configuration not stated),"0.00316 µM [falling, full curve, poor fit]"
21,COC(=O)c1ccc2c(c1)NC(=O)C(N1CCOCC1)S2 (configuration not stated),"0.0316 µM [falling, full curve, poor fit]"
22,O=C(c1ccco1)c1nnn(Cc2ccccc2)c1-c1ccccc1,"20 µM [falling, single point]"
23,N#CC1=C(N)Oc2c(oc(CO)cc2=O)C1c1cccs1 (configuration not stated),"5.01 µM [falling, single point]"

row,Structure (SMILES),AC50
1,COc1ccc2[nH]c(=O)c(C(c3nnnn3CC3CCCO3)N3CCc4ccccc4C3)cc2c1 (configuration not stated),"20 µM [rising, single point]"
2,CCOC(=O)N1CCN(C(=O)c2cn(CC)c3ccc(S(=O)(=O)N4CCCC4)cc3c2=O)CC1,"25.1 µM [rising, single point]"
3,CC(=O)Oc1ccccc1C(=O)Oc1ccc(/C=N/n2cnnc2)cc1,"10 µM [falling, partial curve]"
4,CCNc1ncc2nc(-c3cccc(C#N)c3)c(=O)n(Cc3cccc(OC)c3)c2n1,"0.251 µM [rising, full curve]"
5,O=S(=O)(NCCc1cn2ccccc2n1)c1ccc(F)c(C(F)(F)F)c1,"25.1 µM [falling, single point]"
6,Cc1ccc(-n2nc(C)c3c2OC(N)=C(C#N)C3c2ccc(F)cc2)cc1 (configuration not stated),"0.1 µM [falling, partial curve]"
7,CCCC(C)n1[nH]c(=O)c2c(C)cc(C)nc21 (configuration not stated),"10 µM [rising, single point]"
8,COc1cccc(Cn2c(=O)c(-c3ccc(Cl)cc3)nc3cnc(OC)nc32)c1,"10 µM [rising, partial curve]"
9,Cc1c(C(=O)Nc2ccc(Cl)cn2)oc2ccccc12,"0.794 µM [rising, full curve, poor fit]"
10,CCOCCCNC(=O)C1CCN(S(=O)(=O)N(CC(C)C)CC(C)C)CC1,"5.01 µM [falling, partial curve, poor fit]"
11,Cc1nc2c(-c3ccccc3)c(C)nn2c(C)c1CCC(=O)O,"10 µM [rising, partial curve]"
12,CCCCNC1C(CC)C(CCC)C(C#N)(C#N)C1(C#N)C#N (configuration not stated),"3.16 µM [falling, full curve]"
13,CC1(C)C=Cc2c(c3ccccc3[nH]c2=O)O1,"10 µM [rising, single point]"
14,O=C(O)C1C2C=CC(C2)C1C(=O)OC1CC2CCC1C2 (configuration not stated),"0.00316 µM [falling, full curve, poor fit]"
15,Cc1sc2nc(SCc3nc4ccccc4[nH]3)n(Cc3ccco3)c(=O)c2c1C,"1.26 µM [rising, full curve]"
16,Cc1cc(C)c(OCC(=O)Nc2ccccc2N2CCOCC2)c(C)c1,"12.6 µM [rising, partial curve]"
17,CCCC1(C(=O)OC)C=C2C(=C(C(C)C)C(=O)C2C)CN1 (configuration not stated),"25.1 µM [rising, single point]"
18,CN(C)c1ccnc(-c2ccccc2C(F)(F)F)n1,"5.01 µM [rising, single point]"
19,Cc1cnc(NC(=O)CSc2nnc(-c3ccccc3)n2Cc2ccccc2)s1,"12.6 µM [rising, partial curve]"
20,COc1ccc2cc(CN(CCCN3CCOCC3)Cc3nnnn3C3CCCCC3)c(=O)[nH]c2c1,"0.794 µM [falling, partial curve]"
21,O=S(=O)(Nc1ccc2c(c1)nc1n2CCN(Cc2ccccc2)C1)c1ccc(F)cc1,"5.01 µM [rising, single point]"
22,Cn1c(=O)cc(OCCCC(=O)NCc2ccccn2)c2ccccc21,"10 µM [rising, single point]"
23,Brc1ccc(-c2nc3ccccc3s2)s1,"3.98 µM [falling, partial curve]"

row,Structure (SMILES),AC50
1,C=CCn1c(NC(=O)c2ccccc2)c(C#N)c2nc3ccccc3nc21,"12.6 µM [rising, partial curve]"
2,CCOC(=O)N1CCC(NC(=O)COc2cc(=O)n(C)c3ccccc23)CC1,"25.1 µM [rising, single point]"
3,COc1ccc(C)cc1S(=O)(=O)N(CC(=O)N1CCCC1)c1ccccc1,"0.00398 µM [falling, full curve, poor fit]"
4,Nc1c(N2CCN(c3ccccc3)CC2)c2ccccc2oc1=O,"0.1 µM [falling, partial curve]"
5,COc1ccc(NC(=O)N2CC[C@@]3(CCCN(C(=O)c4csnn4)C3)C2)cc1,"3.98 µM [falling, single point]"
6,O=C(Nc1ccc(F)cc1F)N1CCCCC1c1cccnc1 (configuration not stated),"0.316 µM [rising, full curve]"
7,COc1cccc(NS(=O)(=O)c2ccc3[nH]cc(C(=O)NCCC(C)C)c(=O)c3c2)c1,"12.6 µM [falling, partial curve]"
8,CCC(C)n1c(SC(C)C#N)nc2ccccc2c1=O (configuration not stated),"10 µM [rising, partial curve]"
9,C1CCN=C(Nc2nc3c(s2)CCCC3)CC1,"3.16 µM [falling, partial curve]"
10,CCc1ccc(NC(=O)N(CCCN2CCOCC2)C(C)c2cc3cccc(OC)c3o2)cc1 (configuration not stated),"3.16 µM [falling, single point]"
11,O=c1oc2cc(OCc3nn[nH]n3)ccc2c2c1CCCC2,"25.1 µM [rising, single point]"
12,COc1cccc(-c2nn(C)c3sc(C(=O)NCc4ccco4)cc23)c1,"15.8 µM [rising, partial curve]"
13,Cc1cccc2cc(COC(=O)C3CCCO3)c(=O)[nH]c12 (configuration not stated),"2.51 µM [falling, partial curve]"
14,CCCN(CCC)C(=O)CSc1nc2n[nH]c(C)c2c(=N)n1-c1ccc(OC)cc1,"0.631 µM [rising, partial curve]"
15,COCCCn1c(SCC(=O)NC(C)C)nnc1-c1ccccc1,"25.1 µM [rising, single point]"
16,CCOC(=O)c1c(NC(=O)CN2CCOCC2)sc2c1CCCC2,"12.6 µM [rising, partial curve]"
17,COc1ccc(-c2noc(CSc3nc4ccccc4c(=O)n3-c3ccccc3)n2)cc1OC,"12.6 µM [rising, partial curve]"
18,O=C(Nc1ccc(NC(=O)C2CC2)nc1)c1cccc(F)c1,"3.98 µM [falling, single point]"
19,Cc1[nH]c2ccccc2c1SCCNC(=O)c1ccc(Br)o1,"20 µM [falling, single point]"
20,COc1ccccc1-n1cc(C(=O)NCC(=O)N2CCN(c3ccccc3)CC2)c2ccccc2c1=O,"20 µM [falling, partial curve, poor fit]"
21,CC(C)C[C@@H](CC(=O)N[C@H](CC(=O)N[C@@H]1CCCC[C@H]1C(=O)N[C@H](CC(=O)N[C@@H](CCC(=O)O)CC(=O)O)CC(C)C)C(C)C)NC(=O)[C@@H]1CNCC[C@H]1N,"25.1 µM [falling, partial curve, poor fit]"
